Test results from PubChem BioAssay AID493014 (National Center for Advancing Translational Sciences (NCATS), 2011).
This is one part of the list. Shown are side measurements of this screen, not its main read-out; they come without a call. Compounds called inactive in the main read-out are mostly missing here. The note in brackets gives the kind of curve behind each potency; many fits are weak.

Experiment: qHTS Assay to Find Inhibitors of Chronic Active B-Cell Receptor Signaling
Settings: ABC-DLBCL IkBa-CBG/CBR reporter, luminescence ratio (green luciferase fused to IkBa over red control in TMD8 lymphoma cells), 4 h
In short: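 Compounds up to 46 uM were incubated four hours with TMD8 cells whose green CBG68 luciferase is fused to IkappaBalpha; red CBR luminescence normalised the signal, and concentration-effect curves were fitted to fusion, red and ratio data.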

[1] = measured here: CBR red luminescence, cell number
[2] = measured here: IkBa-CBG green luminescence

Compound | AC50 [1] | AC50 [2]
COc1ccccc1CC(=O)Nc1cccc2ccccc12 | 14.1 µM [rising, partial curve, poor fit] | –
CCCc1cc(C(=O)Nc2ccc(Cl)cn2)cs1 | 17.8 µM [falling, single point] | –
COC(=O)c1sc(S(=O)(=O)Nc2ccc(Br)cc2)c(C(=O)OC)c1C | 6.51 µM [rising, single point] | –
CCC1CO/C(=C(\C(=C(Cl)Cl)N2CCOCC2)[N+](=O)[O-])N1 (centres undefined) | 1.12 µM [rising, full curve, poor fit] | –
CCN(CC)CCNC(=O)Cc1nn(Cc2ccccc2)c(=O)c2ccccc12 | 3.16 µM [rising, single point] | –
CCOC(=O)c1ccc(NC(=S)N2CCCC2)cc1 | 14.1 µM [rising, single point] | –
COc1ccc(/C=N/OCC(=O)Nc2nc3ccccc3s2)cc1 | 29.1 µM [falling, single point] | –
Cc1ccccc1CSc1nc2c(sc3ccccc32)c(=O)n1CCCOC(C)C | 4.47 µM [rising, full curve, poor fit] | –
COc1ccc(C(=O)N/N=C/c2ccc(OC)c(COc3ccc(F)cc3)c2)cc1 | 4.47 µM [falling, partial curve, poor fit] | 12.6 µM [rising, partial curve, poor fit]
Cc1cc(Cl)nc2ccc(Cc3ccc4nc(Cl)cc(C)c4c3)cc12 | 35.5 µM [rising, single point] | –
Cc1cc(C)nc(SCC(=O)Nc2nc(-c3ccccc3)c(-c3ccccc3)o2)n1 | 2.31 µM [falling, partial curve] | –
C/[N+]([O-])=C\C1C(=O)CC(C)(C)CC1=O | 15.8 µM [rising, single point] | 12.6 µM [falling, partial curve, poor fit]
COc1ccc(N(C)S(=O)(=O)c2cccc(C(=O)N3CCN(c4ccccc4)CC3)c2)cc1 | 4.11 µM [falling, partial curve, poor fit] | –
COc1ccc(C(CC(=O)c2ccccc2)S(=O)(=O)c2ccccc2)cc1 (centres undefined) | 8.2 µM [rising, partial curve] | –
CCOc1ccccc1N=Nc1c(C)[nH]n(C(N)=S)c1=O | – | 5.62 µM [falling, single point]
CCc1ccc(Nc2ncnc3c2cnn3-c2cc(Cl)ccc2C)cc1 | 0.0891 µM [rising, full curve, poor fit] | –
CCCC1(C(=O)OCC)NC(c2ccc(N(C)C)cc2)C2C(=O)N(c3ccc4c(c3)OCCO4)C(=O)C21 (centres undefined) | 0.651 µM [rising, full curve, poor fit] | –

A second format for some results above:
COC(=O)c1sc(S(=O)(=O)Nc2ccc(Br)cc2)c(C(=O)OC)c1C
  AC50 [1]: 6.51 µM [rising, single point]
COc1ccc(C(=O)N/N=C/c2ccc(OC)c(COc3ccc(F)cc3)c2)cc1
  AC50 [1]: 4.47 µM [falling, partial curve, poor fit]
  AC50 [2]: 12.6 µM [rising, partial curve, poor fit]
